Laboratory results reported in US10093904B2, “Reprogramming of somatic cells” (Whitehead Institute for Biomedical Research, priority 2007, dated 2018).
At least one compound was matched to its structure with a doubt left.

System: Oct4 expression
Assay: Expression of the inducible Oct4 transgene in tail fibroblasts, Northern blot and Western blot
Assay type: cell-based, mouse
Details: fibroblasts of Oct4-inducible mice, 3 days at 2 microgram/ml; undetectable without doxycycline

C[C@H]1c2cccc(O)c2C(=O)C2=C(O)[C@]3(O)C(=O)C(C(N)=O)=C(O)[C@@H](N(C)C)[C@@H]3[C@@H](O)[C@@H]21 [doxycycline]
Oct4 expression level in fibroblasts: comparable to the Oct4 expression level in ES cells
